Results: patent publication US20250179113A1, “STEROID COMPOUND FOR TREATING CENTRAL NERVOUS SYSTEM DISEASE, METHOD FOR PREPARING SAME, AND USE AND PHARMACEUTICAL COMPOSITION THEREOF” (HUNAN KYF PHARMACEUTICAL CO., LTD., priority 2022, published 2025)
For part of these data: At least one compound was matched to its structure with a doubt left. Some of these results come from one statement about several compounds together.

How the values were obtained:
[1] = tested on: mouse model of acute depression; test: Tail-suspension test, mouse model of acute depression; assay type: in vivo, ICR mice; conditions: female mice, 26.0 mg/kg i.p., 3 days; no statistical difference (P>0.05)
Description: The experimental animals were administered drugs according to the grouping after 3 days of adaptive feeding. The experimental groups included the model group, the compound TM1 group, and the compound TM2 group. For each group of compounds to be tested, edible oil was used as the vehicle, and the administration route for all animals was intraperitoneal injection. The vehicle control group was given the same volume of edible oil by intraperitoneal injection, and the administration volume for each group was 20 mL/kg.
Brexanolone is used to treat postpartum depression. Its usage and dosage are continuous intravenous injection for 60 hours, with a dosage of 100 mg every 12 hours. At the beginning of the administration, it is necessary to gradually increase the drug use rate, and at the end of the administration, it is necessary to gradually decrease the drug use rate. Therefore, the total drug use within the treatment cycle is 450 mg. […]
The clinical dosage of Brexanolone is approximately 200 mg/d. Calculated based on an adult weight of 70 kg, the clinical dose of Brexanolone is 2.857 mg/kg/d. The equivalent dose conversion coefficient between humans and mice calculated according to body surface area is 0.0026. Taking the weight of mice as 20 g, the converted dose for mice is: 2.857 mg/kg/d×70 kg×0.0026/0.02 kg=25.999 mg/kg/d, which is counted as 26.0 mg/kg/d. […]

[2] = tested on: GABAA receptor (primary hippocampal neuronal cells); test: Whole-cell patch clamp of GABA receptor currents in primary hippocampal neuronal cells; assay type: cell-based, SD suckling mice; conditions: with GABA 15 μM

SMILES | immobility time prolonged compared with the model control group, female animals [1] | inward current (chloride ion current) of the GABAA receptor [2]
CC1(O)CCC2(C)C(CCC3C2CCC2(C)C(C(=O)Cn4cc(C#N)cn4)CCC32)C1 (stereo not drawn) [TM17] | more than 10% | increased significantly
CC1(O)CCC2(C)C(CCC3C2CCC2(C)C(C(=O)Cn4cc(C#N)cn4)CCC32)C1 (stereo not drawn) [TM18] |  | increased significantly
